Most values lie at the floor of the assay. Slopes are relative: functional sequences can read slightly below zero.

This data set concerns Saccharomyces cerevisiae PS128 hsf1 delta, HSF1(1-493) fusion. As to the kind of experiment: growth estimate (transactivation domain function in HSF1 fusion, heat-shock survival) (a.u. (slope of normalised read count over time)); higher = stronger growth at 37°C, i.e. more transactivation activity. Conditions: library: random library.
In the case of RGGRIS, the growth estimate is less than -0.25.

Regarding VDKV, the growth estimate is -0.248.

For GVRVCSCM, the growth estimate was less than -0.25.

RRVSLGDSSIIPGAQQPSSS: the growth estimate was less than -0.25.

TVENKPSAGFSVLMT: the growth estimate is less than -0.25.

Turning to GIVAWSEKCSNSPPANTQER, the growth estimate was less than -0.25.

For the substance RFSGLWCSPR, the growth estimate is less than -0.25.

Take IFCFVPQCGEDTMFLVSCFE: the growth estimate is less than -0.25.

For the substance LREIGWLFLVALGKCRKCHK, the growth estimate is less than -0.25.

NLRADVAPTVKTAWCSRERG: the growth estimate is less than -0.25.

Consider SGF, for which the growth estimate was less than -0.25.

GEASLPPRRRPRRSTSGRLG: the growth estimate was less than -0.25.

Take PPVARVGQVLRMHLDTCPNV: the growth estimate was less than -0.25.

On to HSIDFELCYGLHPVHERCYT, for which the growth estimate was less than -0.25.

As to YKPGSGKPNMFASMVDAISL, the growth estimate was less than -0.25.

Regarding DSRRPRRGTVPSSLHFNLSV, the growth estimate is less than -0.25.

Regarding LISVRHSRLG, the growth estimate was less than -0.25.

For the substance ETRSEDLRGHILPSKNTTWS, the growth estimate was less than -0.25.

With AVFCYWTGVLR, the growth estimate was less than -0.25.

On to RIVTYQTGLKCVGVDEMQQT, for which the growth estimate is less than -0.25.

Take DLIAGRCFFLHNVACKIGNI: the growth estimate was -0.246.

Turning to KLTAPRRRMTSTYDGYC, the growth estimate was less than -0.25.

In the case of AGGLLFAHSLSLRGVLSGTM, the growth estimate was less than -0.25.

For CAATSTMNPKFGLRQPDSRS, the growth estimate was less than -0.25.

On to SSRGRPKDIIGV, for which the growth estimate was less than -0.25.

In the case of STHGPRPCKCVRP, the growth estimate was less than -0.25.

On to SSGVVKVLLGFSGRPELLSQ, for which the growth estimate was less than -0.25.

On to PRMGQTG, for which the growth estimate is less than -0.25.

For WKRYNTTRGITCIQFLLALD, the growth estimate is less than -0.25.

On to VCMPQDVRVDFRNFETRGMA, for which the growth estimate is less than -0.25.

As to ACR, the growth estimate was less than -0.25.

As to DWITNSNGGN, the growth estimate was less than -0.25.

Take NCRAVNSG: the growth estimate is less than -0.25.

With QLTIRSLHAQPIRCCKLEKE, the growth estimate was less than -0.25.

For the substance TGPFKRLRSKSRSQVTAHIC, the growth estimate was less than -0.25.

As for ELVGSRASLLAGTVFLLCH, the growth estimate was less than -0.25.

Turning to LQLGKGSSRPNGLSRLLRGK, the growth estimate is less than -0.25.

As for SVIVPRPNYRES, the growth estimate was less than -0.25.

For KHMFCY, the growth estimate was less than -0.25.

Regarding HSCTLKFAMRIGPHLVCESH, the growth estimate is less than -0.25.

Regarding NSRMRSMVRDNGTAGFTCWC, the growth estimate is less than -0.25.

SVCGRRVYRPRAHRCVK: the growth estimate was less than -0.25.

For GVGR, the growth estimate was less than -0.25.

Regarding YKGRAEGAK, the growth estimate is less than -0.25.

On to NYISRSPSSYLDALQRSSGE, for which the growth estimate is less than -0.25.

Turning to CHMEILS, the growth estimate was less than -0.25.

On to VLREPGK, for which the growth estimate was less than -0.25.

On to EPEGRRNTLMLR, for which the growth estimate is less than -0.25.

Take VASGITLVRYRLLYTALSME: the growth estimate was less than -0.25.

With VNLQF, the growth estimate is less than -0.25.

On to ILARCYGGNQSVRELHALME, for which the growth estimate is less than -0.25.

For the substance EEEKGREGNIVSTRERKLLR, the growth estimate is less than -0.25.

DPRKSV: the growth estimate was less than -0.25.

As for SSRKLWSKCLYREQGCIFVP, the growth estimate is less than -0.25.

Take RWPVLVRLNVYGQEAARILQ: the growth estimate is less than -0.25.

On to SLLGRHVCVSRIATWAARVQ, for which the growth estimate is less than -0.25.

For PIRYNAAGARYVAFNTVVLR, the growth estimate was less than -0.25.

Turning to NGLCASREL, the growth estimate was less than -0.25.

In the case of TWGVTVYGCRPKLRGTRIMC, the growth estimate was less than -0.25.

For RDHLIMTLGQLNQ, the growth estimate was less than -0.25.

In the case of LKPVWTDTFAAYGSRLWYPH, the growth estimate is less than -0.25.

As for KVFENVDTPLLESIGIADLP, the growth estimate was less than -0.25.

Consider LMSQPTAGCFPIRD, for which the growth estimate was less than -0.25.

GLSFQFSCGQCRWSLRRK: the growth estimate is less than -0.25.

For the substance SRRSFYGRADKVTISIPDMC, the growth estimate is less than -0.25.

As to REGIRDNTNAMMMWTLW, the growth estimate was 0.111.

With LRLLPWQHSILQAMLPGVQR, the growth estimate is less than -0.25.

For the substance CRNWEACPVSDHEFGTRLSG, the growth estimate was less than -0.25.

With GSEGQEFLGGHRALGLSARG, the growth estimate is less than -0.25.

Consider GLMHGS, for which the growth estimate was less than -0.25.

In the case of ASRHFRPTCRANRSGNQLRR, the growth estimate was -0.245.

For the substance IPGLYIVGKGVISRYNTIRP, the growth estimate was less than -0.25.

For the substance VTSTLECWDGYVDWVWWM, the growth estimate was less than -0.25.

Turning to EWHRLNTGGLLV, the growth estimate was less than -0.25.

As for TPSSELWSYPVGFTRNRSLL, the growth estimate is less than -0.25.

In the case of RSMVK, the growth estimate is less than -0.25.

On to CNRIWLERVTKYVCS, for which the growth estimate is less than -0.25.

With RDGSDQASIRPPQFVVPHQS, the growth estimate was less than -0.25.

For the substance FTIVPFSEVNVGPGVHRT, the growth estimate was less than -0.25.

Turning to YRRVGLTS, the growth estimate was less than -0.25.

Turning to VCGSQFAETEKYQAGLG, the growth estimate was less than -0.25.

For the substance NQRRSRLRMG, the growth estimate was less than -0.25.

Regarding VGAVTRDVLWFCSNRI, the growth estimate is less than -0.25.

Take LRN: the growth estimate is less than -0.25.

As for DSRGGVQSVELAG, the growth estimate was less than -0.25.

With RHMLEPHDSPTPTARGPQSR, the growth estimate is less than -0.25.

Regarding HAVKAQNTARGDTPGQSIIG, the growth estimate was less than -0.25.

With NNRKGSRL, the growth estimate is less than -0.25.

With HFAQALRVLWPGQIMGSRFW, the growth estimate was less than -0.25.

For AKAVKDALLT, the growth estimate is less than -0.25.

Consider GGQWRCSVTWASLQHVSRYK, for which the growth estimate was less than -0.25.

Regarding VGGGMAPAEIPQCETAPIWR, the growth estimate is -0.178.

Regarding GNTPGLAV, the growth estimate is less than -0.25.

Take GAAGGGLYYSANGRIIRAPW: the growth estimate was less than -0.25.

Regarding FPSGVIQLYVPTHPMSRSRP, the growth estimate was less than -0.25.

For RWAYRVARVNFVVKKGPSVT, the growth estimate is less than -0.25.

With VGTWCRCSW, the growth estimate is less than -0.25.

As for VTEGAKVPQSL, the growth estimate is less than -0.25.

In the case of YGRQILITVGISQQTD, the growth estimate is less than -0.25.

On to NELKGYGSK, for which the growth estimate was less than -0.25.

In the case of NWNKGPYLHVM, the growth estimate was -0.243.

Consider PHCVT, for which the growth estimate is less than -0.25.

Turning to ISDEHNGTVPN, the growth estimate is less than -0.25.

With KGF, the growth estimate was less than -0.25.

Turning to LGRDYCR, the growth estimate was less than -0.25.

For the substance RLLNTDGGSSFQGYYTPSKI, the growth estimate was less than -0.25.

As to GYLELVWNNREKTVTPGIKR, the growth estimate was less than -0.25.

On to RYTRVGYSWGLLRGSLRCHI, for which the growth estimate is less than -0.25.

DGFVLVTNRLDSLVLSDL: the growth estimate was less than -0.25.

On to LVQRNNTWTLCVSGSSAYHS, for which the growth estimate was less than -0.25.

On to RVRGISCDPTTSSRLFRPLA, for which the growth estimate was less than -0.25.

For ILRL, the growth estimate is -0.246.

For the substance VNKYKLGRRGLKEEPGVGGP, the growth estimate is less than -0.25.

For the substance RRFKTHDSGLS, the growth estimate was less than -0.25.

(Values after the supplement of paper PMC5949888.)
